Assay results reported in PubChem BioAssay AID2685 (National Center for Advancing Translational Sciences (NCATS), 2010).
The list shows a part of the results. These are further read-outs of the screen, such as a control signal, another cell line or another target. No call is given for them. Compounds called inactive in the main read-out are mostly missing here. The note in brackets gives the kind of curve behind each potency; many fits are weak.

Assay: qHTS Assay for Lipid Storage Modulators in Drosophila S3 Cells;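 on cell number change: cells counted by Cell Tracker Red CMTPX staining in the red channel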
Details: BODIPY lipid droplet fluorescence, 18-24 h; for cell number change: measured here: cell count max response, cells fed with added oleic acid
Outline: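 Laser-scanning cytometry quantifies lipid droplet accumulation (500–530 nm total intensity; droplet/cell object ratio) in oleic acid-fed (400 uM added) Drosophila S3 cells treated with a concentration series. 20 uM Triacsin C defined 100% inhibition.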

[1] = measured here: lipid fluorescence (Fed channel) AC50, cells fed with added oleic acid
[2] = measured here: cell number channel AC50, cells fed with added oleic acid

Compound | cell number change [%] | AC50 [1] | AC50 [2]
O=C(NCc1nc(-c2ccccc2)no1)c1ccc2c(c1)OCO2 | -1.59 | 6.51 µM [rising, single point] | –
Cc1ccc(S(=O)(=O)N2CCN(C(=O)Cn3cnc4c3c(=O)n(C)c(=O)n4C)CC2)cc1C | 3.88 | – | –
CN1C(=O)C2(C(C#N)=C(N)Oc3n[nH]c(-c4ccc(Cl)cc4)c32)c2ccccc21 (centres undefined) | 3.74 | 1.46 µM [rising, partial curve, poor fit] | –
CCCCN(C(=O)CSc1nnc(-c2ccc(OC)cc2)n1C(C)C)c1c(N)n(Cc2ccccc2)c(=O)[nH]c1=O | -34.3 | 13 µM [falling, partial curve, poor fit] | –
CCc1ccc(C(=O)NNC(=O)CN2C(=O)NC3(CCCC3)C2=O)cc1 | -0.688 | 20.6 µM [rising, partial curve] | –
CN1C(C(=O)Nc2cccc(O)c2)=CC(c2ccco2)=NS1(=O)=O | 6.63 | 0.0731 µM [rising, full curve, poor fit] | 0.103 µM [rising, full curve, poor fit]
CC(C)CNc1cc(=O)n(C)c(=O)n1C | 2.19 | 0.146 µM [falling, partial curve, poor fit] | –
COc1cc(C)c(C(=O)CSc2nnc(CNC(=O)c3ccco3)n2C)cc1C | – | 20.6 µM [rising, partial curve] | –
Cc1cccc2cc(CN(Cc3cccnc3)C(=O)c3cccs3)c3nnnn3c12 | -6.05 | 3.26 µM [rising, full curve, poor fit] | –
O=C(COc1cccc(Cl)c1)NCC(c1cccs1)N1CCOCC1 (centres undefined) | 37 | – | –
O=C(CN1CCN(S(=O)(=O)c2ccccc2)CC1)N1CCc2ccccc21 | 21 | 3.26 µM [rising, partial curve] | –
O=C(Nc1ccccc1C(=O)N1CCOCC1)C1COc2ccccc2O1 (centres undefined) | 8.05 | 6.51 µM [falling, single point] | –
Cc1ccccc1Cn1c(=O)n(CCCC(=O)NCc2ccco2)c(=O)c2sccc21 | 149 | 25.9 µM [rising, single point] | 20.6 µM [rising, single point]
COc1ccc(C(=O)n2c(SC)nc3cc4c(cc32)OCCO4)cc1 | -17 | – | –
Cn1c(N)c(C(=O)COC(=O)C2CC(O)CN2S(=O)(=O)c2ccc(Cl)cc2)c(=O)n(C)c1=O (centres undefined) | -0.245 | – | –
CCOc1cccc(NC(=O)/C(C#N)=C\c2cccnc2)c1 | -6.47 | – | –
CC(=O)Nc1ccc(NC(=O)c2c(C)nn(Cc3ccccc3)c2Cl)cc1 | 4.96 | 29.1 µM [rising, partial curve, poor fit] | –
CC1(c2ccccn2)Nc2ccccc2-c2nc3ccccc3n21 (centres undefined) | -13.4 | – | –
Cc1cc2c(ccc3c2no[n+]3[O-])nn1 | -15.5 | – | –
C=CCNC(=S)Nc1ccc(N2CCOCC2)c(S(=O)(=O)Nc2ccccc2Cl)c1 | – | – | 0.82 µM [rising, partial curve]

Compound | cell number change [%] | AC50 [1] | AC50 [2]
COc1ccc(-c2cc(C(=O)N3CCN(c4ccccc4)CC3)no2)cc1 | 7.21 | 0.651 µM [rising, full curve] | –
COC(=O)c1c(C)oc(C)c1S(=O)(=O)NCc1ccc(OC)cc1 | 9.1 | 0.13 µM [falling, full curve, poor fit] | –
CC(C)Oc1ccc(C(CC(=O)O)NC(=O)CSc2ncn[nH]2)cc1 (centres undefined) | 3.45 | – | –
Cc1ccc(OCCn2cc(/C(N)=N/O)c3ccccc32)cc1C | -54.8 | – | 29.1 µM [falling, single point]
O=C(COc1ccc2ccccc2c1)Nc1ccc(Cc2ccncc2)cc1 | -65.2 | 25.9 µM [falling, partial curve] | 23.1 µM [falling, single point]
Cc1ccc(S(=O)(=O)/N=C(/c2ccc(F)cc2)N2CCCC2)cc1 | – | 0.00461 µM [falling, full curve, poor fit] | –
Cc1nc2ccc(NC(=O)c3ccc(S(=O)(=O)N(C)c4ccccc4)cc3)cc2s1 | 233 | 6.51 µM [rising, single point] | 18.4 µM [rising, single point]
NC(=O)c1ccsc1NC(=O)CN1C(=O)C2CC=CCC2C1=O (centres undefined) | 16.7 | 2.31 µM [rising, single point] | –
COc1cc(C(=O)ON=C2C=C(C)C(=O)C(C)=C2)cc(OC)c1OC | – | 0.00651 µM [falling, full curve, poor fit] | 6.51 µM [rising, single point]
CCOC(=O)c1c(NC(=O)CSc2nnnn2-c2ccccc2)sc2c1CCC(C)C2 (centres undefined) | 46.4 | – | 29.1 µM [rising, single point]
CCc1ccc(NC(=O)CCNC(=O)Cn2ccc3ccccc3c2=O)cc1 | 124 | 29.1 µM [rising, single point] | 20.6 µM [rising, partial curve]
Cc1ccc(NC(=O)c2ccc(OCc3c(C)noc3C)cc2)cc1 | -23.6 | 0.13 µM [falling, full curve, poor fit] | –
C/C(=N\NC(=O)c1ccccc1[N+](=O)[O-])c1c(O)cc(C)oc1=O | – | 29.1 µM [falling, single point] | 3.66 µM [rising, single point]
COc1ccccc1CNC(=O)COC(=O)c1ccc(C)s1 | – | 29.1 µM [falling, single point] | –
O=S(=O)(Nc1ccc(O)c(NS(=O)(=O)c2ccccc2)c1)c1ccccc1 | 7.33 | – | –
Cc1ccccc1NC(=O)Cn1cc(C(=O)C2CC2)c2ccccc21 | 18.1 | 0.82 µM [rising, single point] | –
CC(=O)c1cn(Cc2ccccc2)c(=O)n(Cc2ccc(F)cc2)c1=O | 52.1 | – | 7.31 µM [rising, full curve, poor fit]
CCn1nc(C(=O)NNC(=O)CCOc2cc(C)ccc2C)c2ccccc2c1=O | 11.3 | 7.08 µM [rising, full curve, poor fit] | –
CC(=O)c1c(C)[nH]c(C(=O)CSc2nnc3ccccn23)c1C | 22.8 | 29.1 µM [rising, single point] | 4.11 µM [rising, single point]
CCOC(=O)CNC(=O)c1sc2nc(C)cc(C)c2c1N | -19.5 | 6.51 µM [falling, single point] | 0.164 µM [falling, partial curve, poor fit]

Compound | cell number change [%] | AC50 [1] | AC50 [2]
CCCCNC(=S)N/N=C1\C(=O)c2cccc3cccc1c23 | – | 0.82 µM [rising, partial curve] | 0.82 µM [rising, partial curve]
CC(C)CC(=O)Nc1ccc(F)c(Cl)c1 | -0.0328 | 0.184 µM [falling, full curve, poor fit] | –
Cc1ccnc(NC(=O)Cc2ccc(-c3ccccc3)cc2)c1 | 16.9 | – | –
CCOC(=O)COc1ccc2ccccc2c1/C=C/[N+](=O)[O-] | -32 | 6.51 µM [falling, partial curve] | 7.31 µM [falling, partial curve, poor fit]
COCCN(Cc1nc2ccccc2c(=O)[nH]1)C(=O)COc1cccc(C(C)=O)c1 | 19.7 | – | –
O=C(CSc1ncccn1)NCc1cccc(Cl)c1 | -24.9 | 32.6 µM [falling, single point] | –
Cc1ccc(-c2cnc3ccccc3n2)cc1C | -29.7 | 6.51 µM [rising, single point] | –
CCOC(=O)N=S(N)(=O)c1ccccc1 (centres undefined) | – | 29.1 µM [falling, partial curve, poor fit] | –
COc1ccc(CCNC(=O)CCC(=O)N2CCOc3ccccc32)cc1OC | -7.49 | 29.1 µM [falling, single point] | –
NC(=O)c1c(NC(=O)c2cc3ccccc3o2)sc2c1CCC2 | -52.5 | – | 18.4 µM [falling, partial curve, poor fit]
COc1ccc(NC(=O)COC(=O)c2cc(OC)c(OC)cc2NC(=O)c2ccco2)cc1OC | -48.1 | 0.651 µM [rising, partial curve, poor fit] | 32.6 µM [falling, single point]
O=C1CCCC2=C1C(c1ccncc1)c1c(nc(SCc3ccccc3)[nH]c1=O)N2 (centres undefined) | 47.5 | – | –
CN(C)CCCNc1nc(-c2ccccc2)c2c(c1C#N)CC(C)(C)OC2 | -31.5 | 2.59 µM [falling, full curve] | 23.1 µM [falling, single point]
Cc1ccc2nc(N3CCOCC3)c(C=O)cc2c1 | -7.69 | 0.146 µM [rising, full curve, poor fit] | –
COc1ccc(-n2c(C)nn(CC3CC3)c2=O)cc1 | 3.85 | – | –
c1ccc(Cc2noc(CN3CCN(CCOc4ccccc4)CC3)n2)cc1 | 15.8 | 11.6 µM [rising, partial curve] | –
Cc1[nH]nc2c1C(c1ccc(F)cc1)C1=C(CC(C)(C)CC1=O)N2 (centres undefined) | 74.8 | 18.4 µM [rising, partial curve] | 20.6 µM [rising, single point]
COc1ccc(CNC(=O)N[C@@H](Cc2c[nH]c3ccccc23)C(=O)O)cc1 | 17.9 | 2.06 µM [rising, partial curve] | –
Cc1ccc(OCCCn2ccnc2)c([N+](=O)[O-])c1 | 11 | 32.6 µM [rising, partial curve, poor fit] | –
O=C(O)c1c(-c2ccccc2)nnc2ccccc12 | 33.5 | 29.1 µM [rising, single point] | 32.6 µM [rising, single point]

Record cards, as listed above:
Cc1ccc(-c2cnc3ccccc3n2)cc1C is entered as cell number change [%]: -29.7; AC50 [1]: 6.51 µM [rising, single point]
O=C(CSc1ncccn1)NCc1cccc(Cl)c1 is entered as cell number change [%]: -24.9; AC50 [1]: 32.6 µM [falling, single point]
NC(=O)c1c(NC(=O)c2cc3ccccc3o2)sc2c1CCC2 is entered as cell number change [%]: -52.5; AC50 [2]: 18.4 µM [falling, partial curve, poor fit]
